# In PubChem BioAssay AID2685 (National Center for Advancing Translational Sciences (NCATS), 2010):
# In all, about 320,000 compounds went through this assay and about 2,100 (0.66%) were called active. This list was built around the results that the source calls inconclusive (neither active nor inactive); the mix of calls is not that of the screen. Calls follow the shape of the dose curve; as a rule, active = well fitted inhibition curve with a large enough effect in the signal ratio, with a control signal flat (not every such curve was filed as active); inconclusive = small, poorly fitted or top-dose-only effect, or effect the other way, or a change in a side signal; inactive = flat fitted curve, though single readings scatter; the % refers to the signal ratio. Potencies of inconclusive entries are doubtful fits and often do not repeat.
# Experiment: qHTS Assay for Lipid Storage Modulators in Drosophila S3 Cells
# Details: BODIPY lipid droplet fluorescence, 18-24 h, cells fed with added oleic acid; lipid storage change, negative = inhibition: at 46.1 µM (top of the series) unless noted
# How it was run: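 Laser-scanning cytometry quantifies lipid droplet accumulation (500–530 nm total intensity; droplet/cell object ratio) in oleic acid-fed (400 uM added) Drosophila S3 cells treated with a concentration series. 20 uM Triacsin C defined 100% inhibition.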
# % is scaled to controls: 0 for no effect and ±100 for the full control effect; potency is read from the fitted curve at half-maximal effect.
Structure (SMILES),Potency,"lipid storage change, negative = inhibition",outcome
CCOc1ccc(NC(=O)CSc2nc3ccccc3nc2N2CCOCC2)cc1,active: 20.6 µM,–,–
CC(C)NC(=O)c1c(CSc2ccc(Cl)cc2)noc1C(=O)NCc1ccccc1,–,inconclusive: 15.5%,–
Cc1ccc(N2CC(C(=O)N3CCCc4ccccc43)CC2=O)cc1 (stereo not drawn),–,inconclusive: 26.6%,–
CCCCN(C(=O)c1cc2ccccc2o1)c1c(N)n(CCC)c(=O)[nH]c1=O,–,inconclusive: 18.9%,–
CCc1noc(C)c1C(=O)OCC(=O)N(C)c1c(N)n(Cc2ccccc2)c(=O)[nH]c1=O,–,inconclusive,–
O=C(NNC(=O)c1cccc(S(=O)(=O)N2CCN(c3ccccc3)CC2)c1)c1ccc(Cl)cc1,–,inactive: 2.76%,–
Cc1csc(NC(=O)CSc2nc3nc(C)cc(C)n3n2)n1,–,inconclusive: 24%,–
O=C(c1cn(-c2ccccc2)nc1-c1cccs1)N1CCN(c2ccccn2)CC1,"inconclusive: 0.651 µM [rising, single point]",–,–
O=C(NC(=S)Nc1cccc(Cl)c1N1CCCCC1)c1ccco1,–,inconclusive: -29.9%,–
O=c1nc(/C=C/c2ccc(-c3ccc(F)cc3)o2)cc(C(F)(F)F)[nH]1,"inconclusive: 0.291 µM [falling, full curve]",–,–
Cc1ccc(-c2cc(C(=O)N/N=C/c3c[nH]c4ccccc34)[nH]n2)cc1,–,inconclusive: 12.3%,–
COc1ccccc1N1CCN(C(=O)CN(Cc2ccccc2)S(C)(=O)=O)CC1,"inconclusive: 5.8 µM [activator, partial curve]",–,–
O=C(Nc1ccc(NC(=O)C2CC2)cn1)c1ccccc1,–,inconclusive: -34.5%,–
COc1ccc(CNC(=O)C2CCN(S(=O)(=O)N3CCCCC3)CC2)c(OC)c1,–,inconclusive: 8.89%,–
Cc1ccc(-c2nnc(-c3cccc(Br)c3)o2)cc1,"inconclusive: 0.731 µM [activator, full curve, poor fit]",–,–
CCCCc1cc(=O)oc2c3c(cc(OCC(=O)N4CCC[C@H]4C(=O)O)c12)OC(C)(C)CC3,–,inconclusive: 47.5%,–
COc1ccccc1-c1nc2cc3ccccc3cc2nc1-c1ccccc1,"inconclusive: 1.46 µM [activator, partial curve]",–,–
COc1cc(OC)c(CN2CCCCCCC2)cc1Br,active: 29.1 µM,–,–
O=S(=O)(Cc1ccccc1)N1CCCC(c2nc(-c3ccc(F)cc3)no2)C1 (stereo not drawn),–,inconclusive: 23.2%,–
Cc1ccc2c(c1)nnn2C1CCN(CC(=O)NNC(=O)c2ccco2)CC1,–,inconclusive: 22.3%,–
CNC(=S)NNC(=O)c1sc2cc(C(F)(F)F)cnc2c1-c1cccnc1,–,inconclusive: 12.4%,–
CC(C)(C)SC(C(=O)N1CCOCC1)c1ccc(Br)cc1 (stereo not drawn),"inconclusive: 2.31 µM [activator, single point]",–,–
CCCNS(=O)(=O)c1ccc(OCC(=O)N2CCN(c3ccccc3)CC2)cc1,–,inconclusive: 6.93%,–
N#Cc1cnn2ccc(-c3ccc4c(c3)CCC4)nc12,"inconclusive: 0.82 µM [cytotoxic, full curve, poor fit]",–,–
COc1cccc(/C=C/C(=C2/C(=O)N(c3ccccc3)N=C2C)c2ccc(C)cc2)c1OC,–,inconclusive: -54%,–
FC(F)(F)c1ccc(N2CCOCC2)c(NC2=NCCCCC2)c1,–,inconclusive: -40.2%,–

# 14 of the compounds above, with tabs.
Structure (SMILES)	Potency	lipid storage change, negative = inhibition	outcome
CCOc1ccc(NC(=O)CSc2nc3ccccc3nc2N2CCOCC2)cc1	active: 20.6 µM	–	–
O=C(NNC(=O)c1cccc(S(=O)(=O)N2CCN(c3ccccc3)CC2)c1)c1ccc(Cl)cc1	–	inactive: 2.76%	–
Cc1csc(NC(=O)CSc2nc3nc(C)cc(C)n3n2)n1	–	inconclusive: 24%	–
O=C(NC(=S)Nc1cccc(Cl)c1N1CCCCC1)c1ccco1	–	inconclusive: -29.9%	–
COc1ccc(CNC(=O)C2CCN(S(=O)(=O)N3CCCCC3)CC2)c(OC)c1	–	inconclusive: 8.89%	–
Cc1ccc(-c2nnc(-c3cccc(Br)c3)o2)cc1	inconclusive: 0.731 µM [activator, full curve, poor fit]	–	–
CCCCc1cc(=O)oc2c3c(cc(OCC(=O)N4CCC[C@H]4C(=O)O)c12)OC(C)(C)CC3	–	inconclusive: 47.5%	–
COc1cc(OC)c(CN2CCCCCCC2)cc1Br	active: 29.1 µM	–	–
Cc1ccc2c(c1)nnn2C1CCN(CC(=O)NNC(=O)c2ccco2)CC1	–	inconclusive: 22.3%	–
CNC(=S)NNC(=O)c1sc2cc(C(F)(F)F)cnc2c1-c1cccnc1	–	inconclusive: 12.4%	–
CC(C)(C)SC(C(=O)N1CCOCC1)c1ccc(Br)cc1 (stereo not drawn)	inconclusive: 2.31 µM [activator, single point]	–	–
CCCNS(=O)(=O)c1ccc(OCC(=O)N2CCN(c3ccccc3)CC2)cc1	–	inconclusive: 6.93%	–
COc1cccc(/C=C/C(=C2/C(=O)N(c3ccccc3)N=C2C)c2ccc(C)cc2)c1OC	–	inconclusive: -54%	–
FC(F)(F)c1ccc(N2CCOCC2)c(NC2=NCCCCC2)c1	–	inconclusive: -40.2%	–

# The list goes on.

Structure (SMILES),Potency,"lipid storage change, negative = inhibition",outcome
Cc1nc(SCC(=O)N(CC(C)C)C2CCS(=O)(=O)C2)c2c(C)c(C)sc2n1 (stereo not drawn),"inconclusive: 0.651 µM [activator, single point]",–,–
N#CC1=C(N)Oc2cc(O)c(Cl)cc2C1c1ccccc1F (stereo not drawn),–,inconclusive: 25.1%,–
Cc1ccc(C(=O)NCC(=O)N2CCC(Cc3ccccc3)CC2)cc1,"inconclusive: 6.51 µM [falling, single point]",–,–
COc1cccc(OC)c1C(=O)Nn1c(C2CCC2)nc2ccccc2c1=O,"inconclusive: 29.1 µM [falling, single point]",–,–
Cc1ccccc1Nc1nc(N)nc(COC(=O)CCS(=O)(=O)c2ccc(Cl)cc2)n1,–,inconclusive,–
O=C(/C=C/c1ccccc1)NC(NC(=S)Nc1cc(Cl)ccc1Cl)C(Cl)(Cl)Cl (stereo not drawn),active: 16.4 µM,–,–
Cc1ccc(C(=O)N2CCN(c3ccc([N+](=O)[O-])cc3-n3cccc3)CC2)cc1,–,inconclusive: 16.5%,–
CCCN(CCC)C(=O)CSc1nc2n[nH]c(C)c2c(=N)n1-c1ccc(OCC)cc1,"inconclusive: 0.731 µM [falling, full curve]",–,–
O=c1oc(-c2cccc(Cl)c2)nc2c1cnn2-c1ccccc1,–,inconclusive: -65.7%,–
c1ccc2c(C3=NNC(=NC4CC4)SC3)c[nH]c2c1,"inconclusive: 0.13 µM [activator, full curve, poor fit]",–,–
O=C(NCc1cccnc1)Nc1ccccc1C(F)(F)F,–,inconclusive: 26.9%,–
Cc1cccc(NC(=O)CN2CCN(C(=O)c3cncn3-c3ccc(F)cc3)CC2)c1C,–,inconclusive: -0.35%,–
CCCCNc1c(-c2cccc(-c3cc(C(C)=O)cs3)c2)nc2cc(C)ccn12,"inconclusive: 32.6 µM [falling, single point]",–,–
COC(=O)c1ccc(CNC(=O)COC(=O)CCN2C(=O)C3CC=CCC3C2=O)cc1 (stereo not drawn),–,inconclusive: -10.7%,–
COc1ccc(NC(=O)c2[nH]c(C)c(C(C)=O)c2C)cc1Cl,–,inconclusive: 10%,–
Cc1cc(NC(=O)c2ccccc2F)cc(C)c1OCC(=O)N1CCOCC1,–,inconclusive: -42.3%,–
CC(C)CCNC(=S)Nc1ccc(Br)cc1,–,inconclusive: -23.8%,–
CCOC(=O)C(/C=C(\C#N)C(=O)OCC)=C(/N)N1CCN(c2c(C)cccc2C)CC1,–,inconclusive: 137%,–
O=S1(=O)N=C(N2CCN(c3ccc(F)cc3)CC2)c2ccccc21,–,inconclusive: -51.7%,–
Cc1ccc(-n2nnnc2CSc2nnc(-c3ccc(O)cc3)o2)cc1,–,inconclusive: 1.13%,–
CNc1c(NS(=O)(=O)c2cc(OC)ccc2OC)c(=O)oc2ccccc12,–,–,inactive [at 46.1 µM]
O=C(COC(=O)CNC(=O)c1cccc([N+](=O)[O-])c1)Nc1cccc(S(=O)(=O)N2CCCCC2)c1,–,inconclusive: 6.38%,–
Nc1c(-c2ccccc2)cnn1-c1ccc(C(=O)O)cc1,–,inconclusive: -0.578%,–
c1ccc(Cn2c(-c3ccccc3)nc3nc4ccccc4nc32)cc1,"inconclusive: 2.31 µM [activator, partial curve, poor fit]",–,–
O=C1CCC(/C=C/c2ccccc2)=NN1Cc1ccccc1Cl,–,inconclusive: 244%,–
CC(C)S(=O)(=O)c1cnc(-c2ccccn2)nc1N,–,inconclusive: -17.1%,–

Structure (SMILES),Potency,"lipid storage change, negative = inhibition",outcome
CCOC(=O)CNC(=S)N(CCCN1CCCC1)Cc1cccs1,–,inconclusive: -10.1%,–
COC(=O)c1sc(=S)n(-c2ccccc2OC)c1N,"inconclusive: 1.03 µM [activator, full curve, poor fit]",–,–
Nn1c(SCC(=O)Nc2ccc3c(c2)OCCO3)nnc1-c1ccncc1,–,inconclusive: 12.4%,–
CCOC(=O)C1CCCN(CCC(=O)Nc2ccc(Br)c(C)c2)C1 (stereo not drawn),active: 18.4 µM,–,–
COc1ccc(N(C)C(=O)c2oc(=O)c3ccccc3c2-c2ccc(C)cc2)c(OC)c1,"inconclusive: 29.1 µM [falling, single point]",–,–
COCCNC(=O)C(=O)N/N=C/c1ccc(C(=O)OC)cc1,–,inconclusive: -19%,–
CCCCN(Cc1cc2ccccc2[nH]c1=O)S(=O)(=O)c1ccc(C)cc1,–,inconclusive: -64.2%,–
CCOc1cc(C(=O)NCc2ccccc2)ccc1OCC(=O)N1CCOCC1,"inconclusive: 6.51 µM [activator, partial curve]",–,–
CCCn1nnc(NC(=O)COc2ccc(Cl)cc2)n1,–,inconclusive: 12.4%,–
COc1ccc(C(=O)NC(=S)N2CCOCC2)cc1OC,–,inconclusive: 0.67%,–
CCC(Sc1ccc2nnc(-c3ccc(F)cc3)n2n1)C(=O)OC (stereo not drawn),"inconclusive: 29.1 µM [rising, single point]",–,–
COCc1cc(=O)[nH]c2cc(NC(=O)c3cccc(OC)c3)c(C)cc12,–,inconclusive: -0.0225%,–
CC1CCc2c(sc(NC(=O)Cn3cnc([N+](=O)[O-])n3)c2C(N)=O)C1 (stereo not drawn),–,inconclusive: -34.5%,–
COc1ccc(-n2c(N)cc(=O)[nH]c2=O)cc1,–,inconclusive: -14.5%,–
CC1CCCN(c2ccc([N+](=O)[O-])cc2C(=O)c2ccccc2)C1 (stereo not drawn),–,inconclusive: -24.1%,–
O=C1CN(S(=O)(=O)c2cccc(Cl)c2Cl)CCN1,–,inconclusive,–
O=C(NCC(O)c1ccc([N+](=O)[O-])cc1)Nc1ccccc1 (stereo not drawn),–,inconclusive: -4.78%,–
COc1ccc(CCNC(=O)c2cc3c(=O)n4ccccc4nc3n(Cc3ccco3)c2=N)cc1OC,–,–,inactive [at 46.1 µM]
COc1cc(OC)c(C2=NOC(C(=O)N3CCN(C(=O)c4ccco4)CC3)C2)cc1Cl (stereo not drawn),–,inconclusive: 4.34%,–
CCOc1ccccc1NC(=O)Nc1ccc(CC#N)cc1,–,inconclusive: 7.57%,–
N#Cc1ccc(NC(=O)CSc2cn[nH]n2)cc1,–,inconclusive: 36%,–
COc1ccc(C)cc1S(=O)(=O)Nc1cccc(-c2cn3cccnc3n2)c1,–,inconclusive: -49.8%,–
O=C(/C=C/c1ccco1)NCCCN1CCN(CCCNC(=O)/C=C/c2ccco2)CC1,–,inconclusive: 8.32%,–
CN(C)C(CNC(=O)Cc1cccc(C(F)(F)F)c1)c1ccccc1 (stereo not drawn),"inconclusive: 5.8 µM [activator, full curve]",–,–
O=C(NC1CCCC1)C(c1cc2c(cc1[N+](=O)[O-])OCO2)N1CCCC1 (stereo not drawn),"inconclusive: 3.66 µM [rising, single point]",–,–
COc1cccc(CC(=O)OC(C)C(=O)NCc2ccc3c(c2)OCO3)c1 (stereo not drawn),–,inconclusive: 27.6%,–
